Some of the results follow.
These targets were tested with CNc1nc(-c2ccc3c(N)n[nH]c3c2)cc(N2C[C@@H](C(=O)NC3CCCCC3)CC[C@H]2C)n1 (assay: log2 fold change, soluble protein after heating vs DMSO (PISA); higher = thermal stabilisation; K562 lysate, 10 uM; active = over 0.2 and 3.5 SD of the protein, either way, in both replicates (recomputed)).
Summary of the method: (§1)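 The values are log-two fold changes in thermal stability compared with solvent controls and come from duplicates. They were obtained by TMTpro 16plex LC-MS/MS, with channel sums equalised, on the supernatant after 21,000xg for 90 min. That supernatant came from crude K562 extract at 1 mg/mL protein treated with 10 μM compound for 30 min, heated for 3 min across 48°C-58°C, pooled and brought to 0.5% NP-40 at 4°C.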

The chains behind the UniProt entries cited, without tags or fusion partners. Where a name states a change or a piece, a line headed by the entry shows the natural chain unless it says otherwise.
UniProt P11166: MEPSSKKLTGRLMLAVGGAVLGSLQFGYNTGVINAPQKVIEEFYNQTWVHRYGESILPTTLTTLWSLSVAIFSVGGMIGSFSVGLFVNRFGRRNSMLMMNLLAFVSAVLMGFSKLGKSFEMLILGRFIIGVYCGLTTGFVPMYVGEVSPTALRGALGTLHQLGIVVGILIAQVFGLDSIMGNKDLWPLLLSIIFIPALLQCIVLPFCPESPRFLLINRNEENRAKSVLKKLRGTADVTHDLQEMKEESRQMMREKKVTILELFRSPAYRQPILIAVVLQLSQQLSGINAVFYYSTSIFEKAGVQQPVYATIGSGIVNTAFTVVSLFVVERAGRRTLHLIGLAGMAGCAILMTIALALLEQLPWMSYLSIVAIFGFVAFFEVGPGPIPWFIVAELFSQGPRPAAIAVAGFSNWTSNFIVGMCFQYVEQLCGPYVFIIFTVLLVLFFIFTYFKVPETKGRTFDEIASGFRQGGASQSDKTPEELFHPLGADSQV
UniProt Q9H2D1: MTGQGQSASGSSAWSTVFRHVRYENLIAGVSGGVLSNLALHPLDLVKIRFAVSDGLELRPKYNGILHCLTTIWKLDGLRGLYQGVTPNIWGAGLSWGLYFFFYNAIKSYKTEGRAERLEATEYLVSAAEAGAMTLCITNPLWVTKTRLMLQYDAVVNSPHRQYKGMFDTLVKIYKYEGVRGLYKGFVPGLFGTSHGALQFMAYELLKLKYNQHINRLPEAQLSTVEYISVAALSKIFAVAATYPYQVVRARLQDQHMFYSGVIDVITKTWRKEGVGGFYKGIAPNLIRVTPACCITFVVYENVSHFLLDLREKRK
UniProt P78381: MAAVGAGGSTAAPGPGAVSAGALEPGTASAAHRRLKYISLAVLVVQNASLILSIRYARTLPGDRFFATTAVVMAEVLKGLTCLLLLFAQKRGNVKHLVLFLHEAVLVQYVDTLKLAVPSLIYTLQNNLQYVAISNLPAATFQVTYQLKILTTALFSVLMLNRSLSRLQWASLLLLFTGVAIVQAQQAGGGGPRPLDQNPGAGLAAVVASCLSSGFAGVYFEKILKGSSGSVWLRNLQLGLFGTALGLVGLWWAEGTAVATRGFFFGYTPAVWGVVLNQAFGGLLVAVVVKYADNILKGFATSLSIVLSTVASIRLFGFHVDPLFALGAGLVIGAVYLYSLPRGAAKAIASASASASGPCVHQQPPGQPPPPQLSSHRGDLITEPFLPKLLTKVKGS
UniProt Q00325: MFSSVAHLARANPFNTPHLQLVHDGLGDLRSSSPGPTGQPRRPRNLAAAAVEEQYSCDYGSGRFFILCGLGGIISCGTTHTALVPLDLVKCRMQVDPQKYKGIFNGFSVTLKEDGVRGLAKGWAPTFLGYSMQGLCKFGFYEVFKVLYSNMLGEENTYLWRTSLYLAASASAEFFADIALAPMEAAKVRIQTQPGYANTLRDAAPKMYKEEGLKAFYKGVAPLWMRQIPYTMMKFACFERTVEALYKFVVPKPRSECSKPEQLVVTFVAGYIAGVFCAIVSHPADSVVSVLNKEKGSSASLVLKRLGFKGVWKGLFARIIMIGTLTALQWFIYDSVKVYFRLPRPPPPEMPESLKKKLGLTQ
UniProt Q9UBX3: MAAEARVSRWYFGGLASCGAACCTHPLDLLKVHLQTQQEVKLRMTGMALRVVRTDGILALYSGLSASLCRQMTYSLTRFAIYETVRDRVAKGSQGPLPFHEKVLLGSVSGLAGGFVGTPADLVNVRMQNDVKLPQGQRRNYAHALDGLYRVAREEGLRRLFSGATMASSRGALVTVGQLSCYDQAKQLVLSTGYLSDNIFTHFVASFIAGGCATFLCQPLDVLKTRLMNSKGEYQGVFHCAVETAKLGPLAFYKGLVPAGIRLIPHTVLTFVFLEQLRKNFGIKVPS
UniProt Q6XR72: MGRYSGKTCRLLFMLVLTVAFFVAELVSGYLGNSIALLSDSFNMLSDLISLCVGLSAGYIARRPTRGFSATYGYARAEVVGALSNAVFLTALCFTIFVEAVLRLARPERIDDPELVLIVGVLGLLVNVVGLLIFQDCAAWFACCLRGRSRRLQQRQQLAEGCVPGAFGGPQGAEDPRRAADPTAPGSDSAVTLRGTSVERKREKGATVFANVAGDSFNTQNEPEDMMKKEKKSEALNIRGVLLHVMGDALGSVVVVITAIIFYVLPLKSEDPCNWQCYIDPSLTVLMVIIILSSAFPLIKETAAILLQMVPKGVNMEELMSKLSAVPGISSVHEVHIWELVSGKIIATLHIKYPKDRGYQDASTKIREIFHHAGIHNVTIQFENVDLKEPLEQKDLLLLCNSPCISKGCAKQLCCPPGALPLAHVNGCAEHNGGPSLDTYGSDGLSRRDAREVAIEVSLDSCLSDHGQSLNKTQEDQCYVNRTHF
UniProt Q9Y6M7: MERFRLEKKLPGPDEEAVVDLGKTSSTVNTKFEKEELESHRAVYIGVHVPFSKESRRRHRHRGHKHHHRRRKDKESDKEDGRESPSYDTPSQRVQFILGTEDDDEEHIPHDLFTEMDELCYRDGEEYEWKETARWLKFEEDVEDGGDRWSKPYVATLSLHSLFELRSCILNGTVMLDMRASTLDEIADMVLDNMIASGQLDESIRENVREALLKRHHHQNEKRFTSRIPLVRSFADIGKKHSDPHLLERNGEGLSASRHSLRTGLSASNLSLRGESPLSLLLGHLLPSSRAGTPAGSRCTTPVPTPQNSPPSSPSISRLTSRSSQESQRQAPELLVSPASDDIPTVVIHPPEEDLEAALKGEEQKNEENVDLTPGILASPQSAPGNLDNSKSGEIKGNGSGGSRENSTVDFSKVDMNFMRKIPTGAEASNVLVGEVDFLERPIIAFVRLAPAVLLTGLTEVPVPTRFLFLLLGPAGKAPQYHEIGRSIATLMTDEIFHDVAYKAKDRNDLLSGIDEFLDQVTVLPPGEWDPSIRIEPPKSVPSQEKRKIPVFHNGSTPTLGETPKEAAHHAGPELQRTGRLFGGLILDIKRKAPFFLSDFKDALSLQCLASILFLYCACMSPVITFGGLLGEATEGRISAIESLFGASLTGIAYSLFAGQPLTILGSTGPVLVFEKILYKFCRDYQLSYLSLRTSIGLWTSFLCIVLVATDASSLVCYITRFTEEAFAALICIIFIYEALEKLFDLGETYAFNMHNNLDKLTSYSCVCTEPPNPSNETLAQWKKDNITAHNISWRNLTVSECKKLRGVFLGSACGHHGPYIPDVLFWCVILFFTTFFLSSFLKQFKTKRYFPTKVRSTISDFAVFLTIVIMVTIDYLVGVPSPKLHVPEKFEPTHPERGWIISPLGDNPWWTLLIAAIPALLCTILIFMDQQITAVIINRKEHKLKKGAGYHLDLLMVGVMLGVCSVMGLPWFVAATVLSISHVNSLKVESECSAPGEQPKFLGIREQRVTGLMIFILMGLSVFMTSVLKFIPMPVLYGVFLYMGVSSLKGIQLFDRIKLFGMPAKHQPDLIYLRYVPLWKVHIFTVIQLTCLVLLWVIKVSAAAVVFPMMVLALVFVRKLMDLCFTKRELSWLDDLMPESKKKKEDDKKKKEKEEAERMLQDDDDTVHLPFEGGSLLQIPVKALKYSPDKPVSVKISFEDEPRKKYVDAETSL
UniProt Q8WUX1, whole entry, looked up: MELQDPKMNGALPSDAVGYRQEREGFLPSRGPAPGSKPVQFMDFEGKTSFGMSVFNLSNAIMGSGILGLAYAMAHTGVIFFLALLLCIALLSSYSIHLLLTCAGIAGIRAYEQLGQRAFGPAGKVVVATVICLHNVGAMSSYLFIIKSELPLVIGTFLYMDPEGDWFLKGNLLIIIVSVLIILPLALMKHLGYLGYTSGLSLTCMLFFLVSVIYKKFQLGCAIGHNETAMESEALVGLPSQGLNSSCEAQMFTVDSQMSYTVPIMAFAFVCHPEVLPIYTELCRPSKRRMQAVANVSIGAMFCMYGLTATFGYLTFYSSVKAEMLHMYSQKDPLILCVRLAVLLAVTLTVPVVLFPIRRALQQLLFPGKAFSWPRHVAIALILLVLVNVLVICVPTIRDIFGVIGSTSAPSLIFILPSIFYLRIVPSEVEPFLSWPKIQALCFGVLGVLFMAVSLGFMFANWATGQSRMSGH
UniProt Q8TB61: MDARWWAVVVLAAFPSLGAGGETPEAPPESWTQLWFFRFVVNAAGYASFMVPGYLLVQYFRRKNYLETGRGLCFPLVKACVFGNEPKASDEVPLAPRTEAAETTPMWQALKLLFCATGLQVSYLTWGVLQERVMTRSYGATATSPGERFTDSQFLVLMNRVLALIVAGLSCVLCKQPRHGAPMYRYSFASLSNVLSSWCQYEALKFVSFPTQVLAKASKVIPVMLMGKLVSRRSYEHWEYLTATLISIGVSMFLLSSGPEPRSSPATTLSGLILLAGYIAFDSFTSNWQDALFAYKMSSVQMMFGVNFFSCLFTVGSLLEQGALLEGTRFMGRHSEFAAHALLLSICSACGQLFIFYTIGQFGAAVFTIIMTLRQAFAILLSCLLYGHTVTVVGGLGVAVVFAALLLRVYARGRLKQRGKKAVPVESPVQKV
UniProt P30825: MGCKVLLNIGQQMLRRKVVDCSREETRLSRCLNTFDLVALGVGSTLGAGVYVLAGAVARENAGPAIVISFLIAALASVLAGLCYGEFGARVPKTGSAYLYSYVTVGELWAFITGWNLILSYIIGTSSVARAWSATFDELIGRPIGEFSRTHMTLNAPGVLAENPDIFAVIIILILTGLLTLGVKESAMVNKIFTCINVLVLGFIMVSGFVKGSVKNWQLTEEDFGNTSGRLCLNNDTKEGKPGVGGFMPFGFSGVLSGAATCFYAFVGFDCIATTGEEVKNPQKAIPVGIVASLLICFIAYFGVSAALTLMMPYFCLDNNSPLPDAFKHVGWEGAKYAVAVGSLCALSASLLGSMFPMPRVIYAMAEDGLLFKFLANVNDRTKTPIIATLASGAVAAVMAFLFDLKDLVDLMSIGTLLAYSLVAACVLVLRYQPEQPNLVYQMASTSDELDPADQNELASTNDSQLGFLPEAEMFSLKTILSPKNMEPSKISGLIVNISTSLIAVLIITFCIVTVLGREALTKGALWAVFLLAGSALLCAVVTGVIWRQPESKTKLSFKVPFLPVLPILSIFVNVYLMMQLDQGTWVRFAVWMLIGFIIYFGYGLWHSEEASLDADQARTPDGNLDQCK
UniProt Q8TBP6: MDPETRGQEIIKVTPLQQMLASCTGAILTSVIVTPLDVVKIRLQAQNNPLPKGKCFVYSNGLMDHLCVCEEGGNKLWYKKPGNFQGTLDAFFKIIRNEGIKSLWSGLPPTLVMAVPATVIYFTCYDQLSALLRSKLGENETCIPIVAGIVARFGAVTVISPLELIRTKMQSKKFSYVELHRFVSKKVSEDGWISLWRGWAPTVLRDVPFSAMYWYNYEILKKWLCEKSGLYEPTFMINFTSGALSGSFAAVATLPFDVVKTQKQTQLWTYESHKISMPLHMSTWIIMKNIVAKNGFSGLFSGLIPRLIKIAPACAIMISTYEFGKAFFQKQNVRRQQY
UniProt Q92536: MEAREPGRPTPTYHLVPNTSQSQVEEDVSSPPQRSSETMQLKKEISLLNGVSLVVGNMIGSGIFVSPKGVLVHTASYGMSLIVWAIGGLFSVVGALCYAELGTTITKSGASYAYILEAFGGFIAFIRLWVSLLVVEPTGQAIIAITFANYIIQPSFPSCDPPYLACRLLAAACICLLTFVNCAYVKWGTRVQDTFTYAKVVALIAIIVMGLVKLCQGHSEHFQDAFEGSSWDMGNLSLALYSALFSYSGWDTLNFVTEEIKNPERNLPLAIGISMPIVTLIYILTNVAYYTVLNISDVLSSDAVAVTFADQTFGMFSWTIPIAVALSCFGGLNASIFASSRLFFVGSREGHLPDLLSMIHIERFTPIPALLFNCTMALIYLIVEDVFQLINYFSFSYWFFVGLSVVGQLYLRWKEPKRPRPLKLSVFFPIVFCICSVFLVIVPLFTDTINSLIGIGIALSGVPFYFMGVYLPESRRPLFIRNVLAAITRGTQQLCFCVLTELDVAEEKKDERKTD
UniProt P48029: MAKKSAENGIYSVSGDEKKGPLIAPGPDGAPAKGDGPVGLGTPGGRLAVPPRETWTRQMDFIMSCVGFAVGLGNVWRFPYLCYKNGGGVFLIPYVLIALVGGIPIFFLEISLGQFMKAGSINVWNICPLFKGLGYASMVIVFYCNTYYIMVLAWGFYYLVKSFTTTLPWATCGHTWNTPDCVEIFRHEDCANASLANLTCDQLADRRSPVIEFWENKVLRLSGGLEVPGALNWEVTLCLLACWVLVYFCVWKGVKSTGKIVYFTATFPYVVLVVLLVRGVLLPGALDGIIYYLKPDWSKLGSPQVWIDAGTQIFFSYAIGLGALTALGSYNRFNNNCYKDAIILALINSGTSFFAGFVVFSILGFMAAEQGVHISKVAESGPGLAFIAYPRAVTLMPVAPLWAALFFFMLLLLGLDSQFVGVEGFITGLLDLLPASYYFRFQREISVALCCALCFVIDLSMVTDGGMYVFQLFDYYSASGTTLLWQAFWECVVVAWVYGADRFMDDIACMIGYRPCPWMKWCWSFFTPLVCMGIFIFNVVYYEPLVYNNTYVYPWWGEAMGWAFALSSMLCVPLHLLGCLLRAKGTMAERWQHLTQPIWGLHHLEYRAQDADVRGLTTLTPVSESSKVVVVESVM

log2 fold change, inactive:
SLC43A1 (UniProt O75387) 0.07
SMARCA2 (UniProt P51531) 0.054
SLC25A25 isoform 3 (UniProt Q6KCM7) 0.003
SLC2A1 (UniProt P11166) -0.059
SLC25A32 (UniProt Q9H2D1) 0.052
SMAP2 (UniProt Q8WU79) -0.086
SLC43A3 isoform 2 (UniProt Q8NBI5) 0.014
SLC25A42 (UniProt Q86VD7) -0.019
SLC35A2 isoform 4 (UniProt P78381) -0.029
SLC25A3 isoform 2 (UniProt Q00325) 0.037
SLC25A10 isoform 2 (UniProt Q9UBX3) 0.046
SLC39A10 (UniProt Q9ULF5) -0.066
SLC6A6 (UniProt P31641) -0.045
SLC30A10 (UniProt Q6XR72) 0.132
SLC4A2 (UniProt P04920) 0.026
SLC2A3 (UniProt P11169) 0.011
SLC7A5 (UniProt Q01650) 0.046
SLC25A15 (UniProt Q9Y619) 0.027
SLC25A37 (UniProt Q9NYZ2) 0.001
SLC4A7 isoform 7 (UniProt Q9Y6M7) -0.03
SLC38A2 (UniProt Q96QD8) -0.054
SLC30A9 (UniProt Q6PML9) 0.023
SLC38A5 (UniProt Q8WUX1) -0.039
SLC25A36 (UniProt Q96CQ1) 0.029
SLC35B2 (UniProt Q8TB61) 0.062
SLC7A1 (UniProt P30825) -0.116
SLC25A40 (UniProt Q8TBP6) 0.005
SMAP1 isoform 2 (UniProt Q8IYB5) 0.001
SLC33A1 (UniProt O00400) 0.09
SLC25A31 (UniProt Q9H0C2) -0.013
SLC6A9 isoform 2 (UniProt P48067) 0.088
SLC25A38 (UniProt Q96DW6) 0.06
SLC7A6 (UniProt Q92536) 0.03
SLC30A5 (UniProt Q8TAD4) -0.026
SMAD4 (UniProt Q13485) 0.002
SLC6A8 (UniProt P48029) 0.03
SLC25A24 (UniProt Q6NUK1) 0.009
SLC39A14 (UniProt Q15043) 0.006

The targets below were run with COC(=O)N[C@@H](C)CNc1nccc(-c2cn(C(C)C)nc2-c2cc(Cl)cc(NS(C)(=O)=O)c2F)n1 [encorafenib] in the same assay as above.
Summary of the method: as §1

log2 fold change, inactive:
SLC43A1 (UniProt O75387) 0.015
SMARCA2 (UniProt P51531) 0.006
SLC25A25 isoform 3 (UniProt Q6KCM7) 0.035
SLC2A1 (UniProt P11166) -0.001
SLC25A32 (UniProt Q9H2D1) 0.04
SMAP2 (UniProt Q8WU79) 0.047
SLC43A3 isoform 2 (UniProt Q8NBI5) 0.045
SLC25A42 (UniProt Q86VD7) 0.099
SLC35A2 isoform 4 (UniProt P78381) 0.006
SLC25A3 isoform 2 (UniProt Q00325) 0.008
SLC25A10 isoform 2 (UniProt Q9UBX3) 0.022
SLC39A10 (UniProt Q9ULF5) -0.001
SLC6A6 (UniProt P31641) -0.008
SLC30A10 (UniProt Q6XR72) -0.01
SLC4A2 (UniProt P04920) -0.008
SLC2A3 (UniProt P11169) -0.001
SLC7A5 (UniProt Q01650) -0.001
SLC25A15 (UniProt Q9Y619) -0.022
SLC25A37 (UniProt Q9NYZ2) 0.019
SLC4A7 isoform 7 (UniProt Q9Y6M7) 0.026
SLC38A2 (UniProt Q96QD8) 0.119
SLC30A9 (UniProt Q6PML9) 0.032
SLC38A5 (UniProt Q8WUX1) 0.027
SLC25A36 (UniProt Q96CQ1) 0.041
SLC35B2 (UniProt Q8TB61) 0.007
SLC7A1 (UniProt P30825) 0.049
SLC25A40 (UniProt Q8TBP6) 0.019
SMAP1 isoform 2 (UniProt Q8IYB5) 0.028
SLC33A1 (UniProt O00400) 0.026
SLC25A31 (UniProt Q9H0C2) 0.017
SLC6A9 isoform 2 (UniProt P48067) -0.017
SLC25A38 (UniProt Q96DW6) -0.038
SLC7A6 (UniProt Q92536) 0.091
SLC30A5 (UniProt Q8TAD4) 0.069
SMAD4 (UniProt Q13485) -0.001
SLC6A8 (UniProt P48029) 0.058
SLC25A24 (UniProt Q6NUK1) 0.001
SLC39A14 (UniProt Q15043) 0.011

Reference: the supplement of paper PMC10849652
